Test results reported in paper PMC7372555.
No constants are given. Whether binding was seen depends on the method and setting. Binding seen in cells or lysates may run through a third protein. Some entries that bind do so weakly or less than the wild type. Where a sequence is shown, tags or fusion partners need not be part of it.

Chains of the proteins cited; added tags and fusions are not shown. Lines headed by an entry give the natural chain unless they say otherwise; changes in a name come on top.
UniProt Q96D31: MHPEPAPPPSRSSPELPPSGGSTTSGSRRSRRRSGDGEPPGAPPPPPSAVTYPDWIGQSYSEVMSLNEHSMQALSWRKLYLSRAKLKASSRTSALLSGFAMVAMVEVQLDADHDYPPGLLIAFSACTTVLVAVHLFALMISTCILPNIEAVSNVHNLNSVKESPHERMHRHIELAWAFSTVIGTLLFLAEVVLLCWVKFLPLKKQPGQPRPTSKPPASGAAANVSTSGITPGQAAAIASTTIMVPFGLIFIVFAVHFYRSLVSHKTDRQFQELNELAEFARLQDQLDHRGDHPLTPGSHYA

How the values were obtained:
[1] = biological target: D112A–S218G–N223S–Orai1 (human) (UniProt Q96D31); assay: co-IP; as a2, at ambient pH 6.2; anti-HA pull down of HA- and myc-tagged Orai1, blot for GFP
[2] = biological target: HA- and myc-tagged WT Orai1 (human) (UniProt Q96D31); assay: as above
[3] = biological target: HA- and myc-tagged S218G–N223S–Orai1 (human) (UniProt Q96D31); assay: co-IP; HEK293T co-transfected with HA-inserted Orai1 and Flotillin-1–GFP; 1% Triton X-100 lysis buffer (150 mM NaCl, 20 mM Tris–HCl pH 7.5); anti-HA antibody and protein A Sepharose, 4°C, 2 hours; blots with anti-GFP and anti-myc
[4] = biological target: HA- and myc-tagged WT Orai1 (human) (UniProt Q96D31); assay: as above
[5] = biological target: D112A–S218G–N223S–Orai1 (human) (UniProt Q96D31); assay: co-IP; as a2, at ambient pH 7.4; anti-HA pull down of HA- and myc-tagged Orai1, blot for GFP
[6] = biological target: HA- and myc-tagged S218G–N223S–Orai1 (human) (UniProt Q96D31); assay: as above
[7] = biological target: HA- and myc-tagged WT Orai1 (human) (UniProt Q96D31); assay: as above

Measured: binding

B1: Flotillin 1–GFP (protein, UniProt O75955 1-427)
chain: MFFTCGPNEAMVVSGFCRSPPVMVAGGRVFVLPCIQQIQRISLNTLTLNVKSEKVYTRHGVPISVTGIAQVKIQGQNKEMLAAACQMFLGKTEAEIAHIALETLEGHQRAIMAHMTVEEIYKDRQKFSEQVFKVASSDLVNMGISVVSYTLKDIHDDQDYLHSLGKARTAQVQKDARIGEAEAKRDAGIREAKAKQEKVSAQYLSEIEMAKAQRDYELKKAAYDIEVNTRRAQADLAYQLQVAKTKQQIEEQRVQVQVVERAQQVAVQEQEIARREKELEARVRKPAEAERYKLERLAEAEKSQLIMQAEAEAASVRMRGEAEAFAIGARARAEAEQMAKKAEAFQLYQEAAQLDMLLEKLPQVAEEISGPLTSANKITLVSSGSGTMGAAKVTGEVLDILTRLPESVERLTGVSISQVNHKPLRTA
binds: all assays above
